Laboratory results taken from PMC8842155.
No constants are given. Whether binding was seen depends on the method and setting. In cells and extracts the contact can be indirect. Some binding calls cover weakened binding; strength is not graded here. For part of these data: Tags and fused reporters may be left off the sequences shown. One block for each molecule: values may come before it.

Sequences of proteins named here, by UniProt entry; tags and fusion partners are left off. Residues count along the entry.
UniProt Q9Z2W9, residues 23-888: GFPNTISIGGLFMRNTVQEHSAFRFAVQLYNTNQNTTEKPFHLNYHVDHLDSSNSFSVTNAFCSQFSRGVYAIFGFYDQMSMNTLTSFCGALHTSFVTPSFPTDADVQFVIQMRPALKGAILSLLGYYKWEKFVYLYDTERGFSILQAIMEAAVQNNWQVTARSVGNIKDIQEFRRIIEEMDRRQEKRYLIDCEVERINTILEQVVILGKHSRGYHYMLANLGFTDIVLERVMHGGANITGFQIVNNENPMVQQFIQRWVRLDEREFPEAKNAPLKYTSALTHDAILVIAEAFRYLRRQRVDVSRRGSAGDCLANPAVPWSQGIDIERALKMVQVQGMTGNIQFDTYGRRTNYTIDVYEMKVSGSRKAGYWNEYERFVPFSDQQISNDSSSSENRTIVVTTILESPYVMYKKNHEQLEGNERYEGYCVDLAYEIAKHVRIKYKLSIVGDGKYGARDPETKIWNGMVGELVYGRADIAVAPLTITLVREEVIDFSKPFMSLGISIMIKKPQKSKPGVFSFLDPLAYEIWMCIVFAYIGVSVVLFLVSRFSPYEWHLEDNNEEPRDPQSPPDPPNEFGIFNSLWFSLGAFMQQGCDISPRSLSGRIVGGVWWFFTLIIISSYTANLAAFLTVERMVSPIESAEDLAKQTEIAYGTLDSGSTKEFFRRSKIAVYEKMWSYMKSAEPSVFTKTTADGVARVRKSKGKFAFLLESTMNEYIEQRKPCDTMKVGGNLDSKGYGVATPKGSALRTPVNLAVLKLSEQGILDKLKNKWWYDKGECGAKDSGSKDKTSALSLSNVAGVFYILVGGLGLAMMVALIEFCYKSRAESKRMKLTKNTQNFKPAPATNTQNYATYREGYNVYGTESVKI
UniProt P23818, residues 19-907: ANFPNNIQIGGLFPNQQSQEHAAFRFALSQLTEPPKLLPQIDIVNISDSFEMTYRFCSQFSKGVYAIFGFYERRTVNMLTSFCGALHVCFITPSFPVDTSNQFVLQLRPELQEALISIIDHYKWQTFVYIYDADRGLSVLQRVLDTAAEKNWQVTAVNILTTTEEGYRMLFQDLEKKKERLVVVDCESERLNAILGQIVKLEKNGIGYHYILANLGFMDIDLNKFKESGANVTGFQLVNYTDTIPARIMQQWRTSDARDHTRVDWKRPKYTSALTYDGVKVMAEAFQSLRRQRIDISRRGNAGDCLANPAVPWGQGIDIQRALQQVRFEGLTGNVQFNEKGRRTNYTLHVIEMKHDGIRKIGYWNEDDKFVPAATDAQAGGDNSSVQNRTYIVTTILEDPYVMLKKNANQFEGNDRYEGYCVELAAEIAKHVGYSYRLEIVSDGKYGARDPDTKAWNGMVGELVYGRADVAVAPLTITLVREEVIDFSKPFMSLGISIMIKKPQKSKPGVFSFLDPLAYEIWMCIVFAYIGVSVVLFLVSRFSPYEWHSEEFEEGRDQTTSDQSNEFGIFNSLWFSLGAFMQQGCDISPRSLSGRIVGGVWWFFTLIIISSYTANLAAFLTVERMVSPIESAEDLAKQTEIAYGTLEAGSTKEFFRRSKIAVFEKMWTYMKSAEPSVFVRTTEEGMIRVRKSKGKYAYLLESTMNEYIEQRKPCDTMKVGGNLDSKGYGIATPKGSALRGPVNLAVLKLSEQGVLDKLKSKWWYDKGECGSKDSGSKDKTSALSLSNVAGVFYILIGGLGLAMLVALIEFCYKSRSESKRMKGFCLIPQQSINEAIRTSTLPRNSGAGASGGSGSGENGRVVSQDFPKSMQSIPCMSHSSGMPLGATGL

Tests used:
[1] = biological target: T1, FLAG-tagged Prrt2 (mouse, wild type) (mouse) (UniProt E9PUL5); assay: co-IP; lysates of HEK 293T cells co-transfected with HA-tagged GluA1, GluA2 or GluA3 and FLAG-tagged Prrt2; precipitated with the FLAG antibody and Protein G beads, 4°C, Western blot
T1 sequence: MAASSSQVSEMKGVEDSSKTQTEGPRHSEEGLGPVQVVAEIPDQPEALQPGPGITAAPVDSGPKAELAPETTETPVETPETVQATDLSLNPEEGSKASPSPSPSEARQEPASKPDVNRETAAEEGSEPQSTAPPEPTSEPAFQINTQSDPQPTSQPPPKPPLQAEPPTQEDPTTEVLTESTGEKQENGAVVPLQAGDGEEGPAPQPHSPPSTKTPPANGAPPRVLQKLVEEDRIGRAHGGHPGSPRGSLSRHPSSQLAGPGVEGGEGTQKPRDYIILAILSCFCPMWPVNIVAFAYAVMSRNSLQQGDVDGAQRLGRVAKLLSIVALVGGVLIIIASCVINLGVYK

[2] = biological target: AMPA receptor subunit GluA3, endogenous in mouse hippocampus (mouse (endogenous in adult mouse hippocampus)) (UniProt Q9Z2W9); assay: co-IP; homogenates from the adult mouse hippocampus; precipitated with GluA1, GluA2 or GluA3 antibodies, Western blot for Prrt2
[3] = biological target: AMPA receptor subunit GluA1, endogenous in mouse hippocampus (mouse (endogenous in adult mouse hippocampus)) (UniProt P23818); assay: as above

binding [1]: no binding
Molecule: HA-tagged GluA3 (mouse) (from UniProt Q9Z2W9 23-888) (receptor)

binding [2]: no binding | binding [3]: binds
B1: Proline-rich transmembrane protein 2 (Prrt2), endogenous in mouse hippocampus (protein, UniProt E9PUL5 1-346)
chain: T1 sequence
